Results: article doi:10.1101/2025.05.16.654284 (bioRxiv, 2025)
Positions count from the first letter of the chain named. Read-outs that look alike come from different tables or passages of the source. Results are given in words; binding and its absence hold for the method and conditions named. For some assays here: In cells and extracts the contact can be indirect. Some results given as binding are weak or reduced against the parent protein; the word gives no strength. Blank lines part the entries; values can stand above or below the binder they belong to.

What was measured:
[1] = target: T1, YbbAP ABC transporter (E. coli) (UniProt P0A9T8+P77504); assay: pull-down
T1 sequence 1: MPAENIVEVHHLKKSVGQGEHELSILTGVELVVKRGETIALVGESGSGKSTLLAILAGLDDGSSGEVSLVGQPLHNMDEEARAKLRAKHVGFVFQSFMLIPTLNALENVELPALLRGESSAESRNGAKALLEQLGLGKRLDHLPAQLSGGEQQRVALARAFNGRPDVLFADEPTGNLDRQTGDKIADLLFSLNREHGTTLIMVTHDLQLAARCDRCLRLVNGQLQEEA
T1 sequence 2: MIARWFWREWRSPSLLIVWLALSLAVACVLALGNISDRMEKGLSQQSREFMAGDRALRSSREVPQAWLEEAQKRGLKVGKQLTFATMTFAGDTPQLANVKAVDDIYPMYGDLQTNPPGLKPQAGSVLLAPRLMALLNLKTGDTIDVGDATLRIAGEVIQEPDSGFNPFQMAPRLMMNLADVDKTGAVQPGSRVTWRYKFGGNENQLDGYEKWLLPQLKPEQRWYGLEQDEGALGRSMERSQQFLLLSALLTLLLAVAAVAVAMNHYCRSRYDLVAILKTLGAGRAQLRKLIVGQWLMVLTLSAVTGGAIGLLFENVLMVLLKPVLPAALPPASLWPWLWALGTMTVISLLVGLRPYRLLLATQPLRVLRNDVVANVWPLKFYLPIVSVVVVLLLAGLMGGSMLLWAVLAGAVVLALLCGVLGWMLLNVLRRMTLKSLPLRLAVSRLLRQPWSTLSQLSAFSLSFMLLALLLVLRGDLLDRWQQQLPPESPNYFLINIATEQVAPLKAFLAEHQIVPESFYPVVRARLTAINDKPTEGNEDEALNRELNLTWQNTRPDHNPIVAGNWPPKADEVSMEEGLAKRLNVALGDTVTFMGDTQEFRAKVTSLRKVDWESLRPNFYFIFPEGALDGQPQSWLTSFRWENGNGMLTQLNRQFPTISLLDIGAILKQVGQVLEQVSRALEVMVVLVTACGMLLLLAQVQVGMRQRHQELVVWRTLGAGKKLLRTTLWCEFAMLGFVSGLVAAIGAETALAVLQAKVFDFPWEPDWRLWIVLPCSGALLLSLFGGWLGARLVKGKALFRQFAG

YbbP = target: T2, YbbP (E. coli, UniProt P77504 1-804); assay: cryo-EM structure
T2 sequence: T1 sequence 2

[2] = target: T1, YbbAP ABC transporter (E. coli); assay: cryo-EM structure
YbbA (E. coli) = target: T3, YbbA (E. coli) (UniProt P0A9T8); assay: pull-down
T3 sequence: T1 sequence 1

binding [1]: binds
B1: TesA (enzyme, UniProt P0ADA1 27-208)
chain: ADTLLILGDSLSAGYRMSASAAWPALLNDKWQSKTSVVNASISGDTSQQGLARLPALLKQHQPRWVLVELGGNDGLRGFQPQQTEQTLRQILQDVKAANAEPLLMQIRLPANYGRRYNEAFSAIYPKLAKEFDVPLLPFFMEEVYLKPQWMQDDGIHPNRDAQPFIADWMAKQLQPLVNHDS

binding (YbbP): binds
binding [2]: binds
binding [1]: binds
B2: TesA Ser36Ala (enzyme, E. coli, UniProt P0ADA1 27-208, looked up)
chain: B1 chain with S10A

binding (YbbP): binds
binding (YbbP; record 2): binds
binding (YbbP; record 3): binds
B3: YbbA (natural protein, E. coli)
chain: T1 sequence 1

binding (YbbA (E. coli)): binds
B4: YbbP (protein, UniProt P77504 1-804)
chain: T1 sequence 2
